Test results reported in publication PMC9789999.
These are yes or no findings as the source states them, for the method shown. In cells and extracts the contact can be indirect. Some entries that bind do so weakly or less than the wild type.

The chains behind the UniProt entries cited, without tags or fusion partners.
UniProt Q9DCD6: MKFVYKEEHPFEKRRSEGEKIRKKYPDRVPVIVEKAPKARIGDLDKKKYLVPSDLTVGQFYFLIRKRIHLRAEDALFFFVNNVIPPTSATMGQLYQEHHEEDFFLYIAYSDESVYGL
UniProt Q6VNB8: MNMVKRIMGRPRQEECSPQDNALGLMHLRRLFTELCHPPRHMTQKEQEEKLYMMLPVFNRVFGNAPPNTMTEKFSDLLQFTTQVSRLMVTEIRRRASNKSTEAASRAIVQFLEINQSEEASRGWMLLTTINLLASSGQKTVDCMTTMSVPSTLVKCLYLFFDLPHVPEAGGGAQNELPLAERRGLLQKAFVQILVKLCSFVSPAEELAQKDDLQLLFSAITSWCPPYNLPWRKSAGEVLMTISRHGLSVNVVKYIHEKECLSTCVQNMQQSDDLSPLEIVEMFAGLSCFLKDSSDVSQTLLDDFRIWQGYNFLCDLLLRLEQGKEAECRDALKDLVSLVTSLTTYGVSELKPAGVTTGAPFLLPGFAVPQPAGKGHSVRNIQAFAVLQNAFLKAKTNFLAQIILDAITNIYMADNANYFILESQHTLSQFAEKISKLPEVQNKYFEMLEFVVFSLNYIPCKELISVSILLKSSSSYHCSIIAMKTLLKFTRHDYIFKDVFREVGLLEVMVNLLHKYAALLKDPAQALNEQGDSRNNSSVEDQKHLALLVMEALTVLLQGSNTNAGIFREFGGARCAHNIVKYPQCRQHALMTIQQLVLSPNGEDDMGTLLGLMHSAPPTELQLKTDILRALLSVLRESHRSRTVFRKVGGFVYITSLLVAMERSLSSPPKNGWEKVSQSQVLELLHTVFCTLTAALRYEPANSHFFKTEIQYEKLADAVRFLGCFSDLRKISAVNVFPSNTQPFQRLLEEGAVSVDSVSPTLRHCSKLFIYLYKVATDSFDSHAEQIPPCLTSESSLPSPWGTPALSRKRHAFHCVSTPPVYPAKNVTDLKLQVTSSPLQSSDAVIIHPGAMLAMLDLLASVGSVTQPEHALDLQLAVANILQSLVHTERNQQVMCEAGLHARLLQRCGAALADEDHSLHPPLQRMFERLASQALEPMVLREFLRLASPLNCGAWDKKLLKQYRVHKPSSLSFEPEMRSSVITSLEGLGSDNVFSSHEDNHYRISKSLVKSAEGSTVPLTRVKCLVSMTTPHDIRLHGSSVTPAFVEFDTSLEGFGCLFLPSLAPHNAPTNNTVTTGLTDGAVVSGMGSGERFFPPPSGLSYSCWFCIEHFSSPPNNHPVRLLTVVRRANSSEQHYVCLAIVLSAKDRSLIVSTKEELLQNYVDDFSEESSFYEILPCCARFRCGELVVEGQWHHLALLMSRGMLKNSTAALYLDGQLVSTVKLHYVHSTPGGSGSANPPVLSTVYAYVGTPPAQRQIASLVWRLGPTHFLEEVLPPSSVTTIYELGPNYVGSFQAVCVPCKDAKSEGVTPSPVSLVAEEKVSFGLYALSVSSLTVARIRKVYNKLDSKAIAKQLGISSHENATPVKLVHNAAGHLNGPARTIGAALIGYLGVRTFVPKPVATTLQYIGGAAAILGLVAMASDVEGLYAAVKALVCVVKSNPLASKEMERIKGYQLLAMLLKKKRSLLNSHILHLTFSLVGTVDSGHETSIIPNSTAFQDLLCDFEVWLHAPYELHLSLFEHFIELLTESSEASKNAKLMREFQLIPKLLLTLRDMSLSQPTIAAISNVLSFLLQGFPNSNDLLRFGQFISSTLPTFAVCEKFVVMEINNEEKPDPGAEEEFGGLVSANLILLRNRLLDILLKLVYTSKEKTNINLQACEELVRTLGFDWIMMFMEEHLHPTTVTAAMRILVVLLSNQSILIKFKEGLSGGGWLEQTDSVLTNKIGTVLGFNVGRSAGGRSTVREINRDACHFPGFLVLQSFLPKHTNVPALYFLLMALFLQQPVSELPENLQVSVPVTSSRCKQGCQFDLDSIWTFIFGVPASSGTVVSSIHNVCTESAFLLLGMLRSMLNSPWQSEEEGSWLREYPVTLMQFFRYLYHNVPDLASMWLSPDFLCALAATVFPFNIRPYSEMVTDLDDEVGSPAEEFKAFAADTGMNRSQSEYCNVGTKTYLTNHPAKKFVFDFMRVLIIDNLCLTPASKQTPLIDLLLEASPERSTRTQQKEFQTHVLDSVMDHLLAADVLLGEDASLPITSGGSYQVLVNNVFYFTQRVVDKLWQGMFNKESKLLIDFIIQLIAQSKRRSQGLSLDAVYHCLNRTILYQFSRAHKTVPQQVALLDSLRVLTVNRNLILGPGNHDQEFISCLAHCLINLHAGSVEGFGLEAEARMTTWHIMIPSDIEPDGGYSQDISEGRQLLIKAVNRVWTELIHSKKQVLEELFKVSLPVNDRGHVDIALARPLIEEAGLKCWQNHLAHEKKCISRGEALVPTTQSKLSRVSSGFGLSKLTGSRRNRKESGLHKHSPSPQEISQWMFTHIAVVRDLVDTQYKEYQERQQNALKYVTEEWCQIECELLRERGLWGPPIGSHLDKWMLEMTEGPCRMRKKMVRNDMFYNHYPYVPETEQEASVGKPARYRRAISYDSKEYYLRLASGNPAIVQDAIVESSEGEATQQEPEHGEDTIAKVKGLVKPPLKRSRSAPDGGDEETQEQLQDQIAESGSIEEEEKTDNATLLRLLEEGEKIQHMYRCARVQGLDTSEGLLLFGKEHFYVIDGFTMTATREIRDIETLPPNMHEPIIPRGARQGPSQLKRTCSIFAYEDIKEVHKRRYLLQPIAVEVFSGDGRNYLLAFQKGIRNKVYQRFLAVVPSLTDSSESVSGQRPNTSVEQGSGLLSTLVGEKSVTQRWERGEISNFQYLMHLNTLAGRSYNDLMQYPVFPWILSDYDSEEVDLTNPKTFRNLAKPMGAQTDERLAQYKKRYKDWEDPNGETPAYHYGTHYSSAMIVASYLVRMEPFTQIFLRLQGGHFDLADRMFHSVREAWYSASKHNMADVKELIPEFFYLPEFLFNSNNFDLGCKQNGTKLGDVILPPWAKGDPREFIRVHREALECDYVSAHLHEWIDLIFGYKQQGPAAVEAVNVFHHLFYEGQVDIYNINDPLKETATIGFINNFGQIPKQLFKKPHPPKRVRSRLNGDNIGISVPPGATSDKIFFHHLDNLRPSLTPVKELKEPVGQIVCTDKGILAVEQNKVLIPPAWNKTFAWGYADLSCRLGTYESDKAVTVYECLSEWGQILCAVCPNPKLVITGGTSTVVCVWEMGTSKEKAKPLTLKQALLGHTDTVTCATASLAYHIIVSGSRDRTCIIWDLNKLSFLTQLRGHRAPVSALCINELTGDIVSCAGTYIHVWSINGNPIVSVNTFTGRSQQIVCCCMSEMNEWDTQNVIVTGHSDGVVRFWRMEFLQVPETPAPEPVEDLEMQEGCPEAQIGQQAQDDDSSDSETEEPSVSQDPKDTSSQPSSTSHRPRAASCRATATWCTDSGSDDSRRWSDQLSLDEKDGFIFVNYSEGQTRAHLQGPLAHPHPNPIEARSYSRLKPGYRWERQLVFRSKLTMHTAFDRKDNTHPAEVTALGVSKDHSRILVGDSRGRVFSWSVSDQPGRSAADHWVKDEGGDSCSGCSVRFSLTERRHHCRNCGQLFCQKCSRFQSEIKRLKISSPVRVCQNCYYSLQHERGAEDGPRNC

Biological target: GABARAP (mouse (endogenous in BMDMs)) (UniProt Q9DCD6)
Assay: co-IP; 250 ug whole-cell lysate of Cre- BMDMs in RIPA buffer incubated with 8 ug anti-GABARAP antibody (Abcam ab191888) overnight at 4 C, then protein A/G agarose beads 1-2 h at 4 C, three washes with RIPA buffer; bead-bound proteins blotted with anti-WDFY3; both proteins endogenous; Cre+ (Wdfy3 knockout) lysate as control

## WDFY3 (WD repeat and FYVE domain containing 3) (from UniProt Q6VNB8 1-3508)
  binding: binds
